Results as given in the supplement of paper PMC10338343.
± gives the standard deviation. The list shows a part of the results, in another mix than the full data. The uncertainty is large for many entries.

What follows are sequences tested on MIWI (PIWIL1) piRISC loaded with L1MC piRNA (30 nt) (assay: pre-steady-state target cleavage rate (min^-1); MIWI and MILI are mouse PIWI proteins and EfPiwi is from a freshwater sponge; tags in brackets are library labels; higher = faster piRNA-guided slicing of the target). Conditions: guide: L1MC piRNA 5'p-UAACUAAAUACUAUGCAAGCUGUAGGUCCU; auxiliary factor: 500 nM mouse GTSF1.
In short: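 In HEPES–potassium acetate buffer at 33 °C, […] transcribed, DNA-blocked target RNA library was mixed with 1 nM active affinity-purified piRISC carrying one synthetic guide, with or without 500 nM GTSF1 partner protein, for 0–8 or 0–960 min. Uncleaved targets were sequenced and normalised to depth and to weakly complementary targets; three trials were pooled and k3 was capped at 0.0001 min^-1. The pre-steady-state cleavage rate followed from a burst-and-steady-state fit.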
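Note: 1 nM active piRISC with 0.1 nM target library at 33 °C single turnover.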

Sequence | pre-steady-state target cleavage rate
AGGACCAACAGCAUGCAUAGUAUUUAGUUA | 1.39 ± 0.048
AGCACCUACAGCUUGCAUAGUAUUUACUUA | 1.4 ± 0.24
UCCUGGAUGUCGAACGUUAGUAUUUUCUUA | 0.000141 ± 0.035
UCGACCUACAGCUUGCAUGGUAUUUAGUUA | 1.73 ± 0.084
AGCUGCUACAGCUUGCAUAGUAUUUAGUUA | 1.49 ± 0.07
AGGACCUACUGCUUGGAUAGUAUUUAGUUA | 1.34 ± 0.052

Looked up above:
pre-steady-state target cleavage rate with AGCACCUACAGCUUGCAUAGUAUUUACUUA is entered as 1.4 ± 0.24
pre-steady-state target cleavage rate with UCCUGGAUGUCGAACGUUAGUAUUUUCUUA is entered as 0.000141 ± 0.035

Same assay, conditions: guide: L1MC piRNA 5'p-UAACUAAAUACUAUGCAAGCUGUAGGUCCU; auxiliary factor: none (no GTSF1)

Sequence | pre-steady-state target cleavage rate
UGGACCUACAGCUUCCAUAGUAAUUAGUUA | 0.00161 ± 0.0031
AGGACCUACAGCUUGCUAUCAUAAAUCAAA [g15:g30:cont:t1A] | 0.000524 ± 0.013
UCCACCAUCAGCUUGCAUAGUAUUUUCAAA | 0.00202 ± 0.0034
UGGACCUACAGCUUGCAAUCAUAAAUCAAA [g14:g29:cont:t1A] | 0.000227 ± 0.012
UCCACCUACAGCUUGCAUAGUAAAUACAAA | 0.000298 ± 0.012
UCCUGGAUGUCGAACCAUACUAUUUAGUUA | 0.000184 ± 0.018
UCGACCUACAGCAACCAUAGUAUUUACAAA | 0.000192 ± 0.019
UCCACCUACAGCUUGCAUUCAAUUUAGUAA | 0.000808 ± 0.0086
UGGACCUACAGCUACCAUAGUAUUUACAAA | 0.000211 ± 0.011
UCCACCUACAGCUUCCAUAGUAUUUUGUUA | 0.00112 ± 0.0052
UCCACCUACAGCUUGCAUACAUUUUAGUUA | 0.000777 ± 0.0066
UCGACCUACAGCUUCCAUAGUAUUUACUUA | 0.00109 ± 0.006
UGGACCUACAGCUAGCAUAGUAUUUUCAAA | 0.00167 ± 0.0049
UCCUCCUACAGCUUGCAUAGUAUUAUCAAA [g7:g26:cont:t1A] | 0.00182 ± 0.004
UCCUGGAUGUGCUUGCAUACAUUUUAGUAA | 0.000661 ± 0.013
AGGACCUACAGCUACCAUAGUAUUUAGUAA | 0.00187 ± 0.0043
UCCACCUACAGCUUGCAUAGAUAUUAGUAA | 0.00071 ± 0.0078

Sequence | pre-steady-state target cleavage rate
UGGACCUACAGCUUGCAUAGUUUUUUCAAA | 0.00132 ± 0.0059
UCCUGGAUGUCGAACGAUAGUAUUUACUUA | 0.000157 ± 0.034
UCCUGGAUGUCGAACCAUAGUAUAAUCAAA [g8:g15:cont:t1A] | 0.000206 ± 0.026
UCCACCUACAGCUUCCAAAGUAUUUAGUUA | 0.00128 ± 0.002
AGGACCUACAGCUUGCAAUAGUAUUUAGUUA | 0.00226 ± 0.004
UGGACCUACAGCUUGCAUAGAUAUUAGUAA | 0.000833 ± 0.0067
AGGUGGUACAGCUUGCAUAGUAUUUUCAAA | 0.00174 ± 0.0033
AGGACCUACAGCUUGCAAUCUAUUUUCAAA | 0.000558 ± 0.012
UCCACCUACAGCUUGCUAUGUAUUUAGUAA | 0.00143 ± 0.0045
UCCACCUACAGCUUGACAUAGUAUUUAGUUA | 0.00235 ± 0.0029
UGGACCUACAGCUUGCAUACAAUUUAGUAA | 0.00172 ± 0.0024
UCGACCUACAGCUUGCAUAGAUAUUACAAA | 0.000755 ± 0.0089
UCGACCUACACGAUGCAUAGUAUUUUCAAA | 0.000659 ± 0.01
UGGACCUACAGCUUGCAUAGUAAUUACAAA | 0.00111 ± 0.0054
UCCUGGAUCAGCUUGCAUAGUAUUAUCAAA [g7:g22:cont:t1A] | 0.00193 ± 0.0035
AGGACCUACAGCUUGCAUAGAUAUUUCAAA | 0.000794 ± 0.011
UCCUGGAUGUCGAACGUAUGUAUUUACAAA | 0.000156 ± 0.03
